The whole screen tested about 330,000 compounds, of which about 7,700 (2.3%) were called active. Inconclusive results, whose numbers are uncertain, are shown with a selection of clear calls. The call rests on the fitted dose curve; in most records, active means well fitted inhibition curve with a large enough effect; inconclusive means small, poorly fitted or top-dose-only effect, or effect the other way; inactive means flat fitted curve, though single readings scatter. Potencies of inconclusive entries are doubtful fits and often do not repeat.
Assay: qHTS screen for small molecules that inhibit ELG1-dependent DNA repair in human embryonic kidney (HEK293T) cells expressing luciferase-tagged ELG1; further: nearly all actives have a fitted effect of over 55% in size
Settings: HEK293T ELG1-luciferase reporter, luminescence, 16 h, DNA damage induced by 5-fluorouridine; activity change, negative = inhibition: at 46.1 µM (top of the series)
Method in brief: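 In this reporter screen, reduction of luminescence relative to DMSO vehicle indicated activity. Compounds and 5-fluorouridine were added together to 2,000 cells per well, incubated for 16 hr at 37 °C, then developed with ONE-Glo.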
On the % scale 0 is the no-effect control and ±100 the full control effect; potency means the concentration at half of the fitted maximal effect.

| SMILES | activity change, negative = inhibition | Potency |
| --- | --- | --- |
| COc1cccc(CNc2nn[nH]n2)c1OC | inactive: -5.31% | – |
| NC(=O)c1ccccc1N/C=C/C(=O)c1ccc(F)cc1 | – | inconclusive: 2.06 µM [activator, full curve] |
| CCCc1cc(=O)[nH]c(SCC(=O)N2CCCC2=O)n1 | inactive: 4.12% | – |
| O=C(NCC(c1cccnc1)N1CCN(c2ccccc2F)CC1)C1CCCCC1 (configuration not stated) | – | inconclusive: 23.1 µM [inhibitor, partial curve] |
| CSc1nsc(NC(=O)CCNC(=O)c2ccc([N+](=O)[O-])cc2)n1 | – | inconclusive: 29.1 µM [inhibitor, single point] |
| CC(Sc1nnc(-c2ccccc2Br)n1-c1cccc(C(F)(F)F)c1)C(N)=O (configuration not stated) | inactive: 4.68% | – |
| CCOC(=O)C1CCCN(C(=O)/C=C/c2cccc([N+](=O)[O-])c2)C1 (configuration not stated) | inactive: 0.84% | – |
| O=C(CSc1nnc(-c2ccc(Cl)cc2)n1-c1ccc(Cl)cc1)N/N=C/c1ccco1 | – | active: 23.1 µM |
| CCn1c(SCC(=O)NC2CC2)nnc1-c1cccs1 | inactive: 10.2% | – |
| Cc1ccc(C(=O)NCc2ccco2)cc1S(=O)(=O)Nc1cccc(C)c1C | – | inconclusive: 29.1 µM [inhibitor, partial curve, poor fit] |
| Cc1cc(C)n(-c2ccc(Cl)c(C(=O)Nc3ccc(-c4nnc5n4CCCCC5)cc3)n2)n1 | – | inconclusive: 16.4 µM [inhibitor, partial curve] |
| COc1ccc2c(c1)[nH]c1c(=O)n(CCN3CCCC3)cnc12 | – | inconclusive: 32.6 µM [activator, partial curve, poor fit] |
| Cc1cc(Nc2ccc3ccccc3c2)n2ncnc2n1 | – | inconclusive: 29.1 µM [activator, single point] |
| COc1cc(NC2c3ccccc3C(=O)N2c2ccc(C)cn2)cc(OC)c1OC (configuration not stated) | – | inconclusive: 16.4 µM [activator, partial curve] |
| O=C(CN1C(=O)c2ccccc2S1(=O)=O)c1ccc(O)c(O)c1 | – | inconclusive: 18.3 µM [activator, single point] |
| N#Cc1c(-c2ccccc2)nc(-c2ccccc2)nc1N1CCOCC1 | – | active: 14.6 µM |
| Cc1ccccc1OCC(=O)Nc1ccc(C(N)=O)cc1 | – | inconclusive: 16.4 µM [activator, single point] |
| CC/C(=C\C(=O)c1ccncc1)Nc1ccc(Br)cc1 | inactive: 1.46% | – |
| O=C(NCc1ccc(F)cc1)c1noc2c1CCCCC2 | – | inconclusive: 14.6 µM [activator, partial curve] |
| CC(C)(CCl)C(=O)Nc1ccnc(-c2ccncc2)n1 | inactive: 2.21% | – |
| Cc1ccc(-c2nnc3n2N=C(c2ccccc2Br)CS3)cc1 | – | inconclusive: 29.1 µM [inhibitor, single point] |
| Cc1cc(C)n(CCC(=O)Nc2ccc(-c3ccno3)cc2)n1 | inactive: 4.66% | – |
| C[C@]12C(=O)N(c3ccc(Br)cc3)C(=O)N1[C@@H]1c3ccccc3OC[C@@H]1[C@H]2c1ccccc1 | – | inconclusive: 1.46 µM [activator, partial curve, poor fit] |
| COc1ccc(CCNc2nc(C)nc3c2oc2ccccc23)cc1OC | – | active: 10.3 µM |

Some of these compounds in order of length of the SMILES, smallest number first:

| SMILES | activity change, negative = inhibition | Potency |
| --- | --- | --- |
| Cc1cc(C)n(CCC(=O)Nc2ccc(-c3ccno3)cc2)n1 | inactive: 4.66% | – |
| N#Cc1c(-c2ccccc2)nc(-c2ccccc2)nc1N1CCOCC1 | – | active: 14.6 µM |
| Cc1ccc(C(=O)NCc2ccco2)cc1S(=O)(=O)Nc1cccc(C)c1C | – | inconclusive: 29.1 µM [inhibitor, partial curve, poor fit] |

The listing continues:

| SMILES | activity change, negative = inhibition | Potency |
| --- | --- | --- |
| NNC(=O)c1cc(NS(=O)(=O)c2cccs2)cc(NS(=O)(=O)c2cccs2)c1 | inactive: 13% | – |
| O=C(Cc1ccccc1)N/N=C/c1cc(Br)cs1 | – | inconclusive: 20 µM [activator, single point] |
| CC(Sc1nc2ccccc2c(=O)n1CC1CCCO1)C(=O)NC(C)c1ccccc1 (configuration not stated) | inactive: 5.4% | – |
| O=C(CNc1cc([N+](=O)[O-])ccc1NCCO)Nc1cccc(S(=O)(=O)N2CCCCC2)c1 | – | inconclusive: 10.3 µM [inhibitor, partial curve] |
| COc1ccc(NC(C)=O)cc1NC(=O)CN1CCN(CC(=O)Nc2ccc(Cl)cc2)CC1 | – | inconclusive: 18.4 µM [inhibitor, partial curve] |
| COc1ccc(-c2cnn(-c3ccccc3)c2N)cc1OC | – | inconclusive: 29.1 µM [activator, single point] |
| CCOc1ccc(NCc2nnc(SCC(=O)Nc3cc(C)on3)n2-c2ccccc2OC)cc1 | – | inconclusive: 18.4 µM [inhibitor, single point] |
| Cc1ccc(C(=O)Nc2cccc(C(=O)N3CCOCC3)c2)cc1Cl | – | inconclusive: 29.1 µM [activator, single point] |
| CCN(CC)S(=O)(=O)c1c(Br)cc(C)cc1Br | inactive: -8.88% | – |
| Nc1nnc(/C=C/c2ccccc2Cl)s1 | – | inconclusive: 10.3 µM [activator, partial curve] |
| O=c1c2ccccc2nc(SCc2cn3ccsc3n2)n1-c1ccc(F)cc1 | – | inconclusive: 29.1 µM [inhibitor, single point] |
| Cc1cccc(C(=O)Oc2ccc(/C=N/NC(=O)c3ccc(O)cc3)cc2)c1 | inactive: -0.246% | – |
| COc1ccc(S(=O)(=O)N(C)c2ccc(C(=O)NC3CC3)cc2)cc1 | inactive: 3% | – |
| COc1ccc(N2CCN(C(=O)CCC(=O)N3CCOc4ccc(Cl)cc43)CC2)cc1 | – | inconclusive: 10.3 µM [inhibitor, partial curve] |
| c1ccc(N2CCN(c3nc4ccccc4n4cnnc34)CC2)cc1 | – | inconclusive: 23.1 µM [inhibitor, single point] |
| c1ccc2cc(OCCOCCOc3ccc4ccccc4c3)ccc2c1 | inactive: -28.4% | – |
| O=C(CO/N=C/c1ccccc1O)N1CCc2ccccc21 | – | inconclusive: 20.6 µM [activator, single point] |
| CC(=O)c1cccc(NC(=S)NC2CC2)c1 | inactive: 0.845% | – |
| O=[N+]([O-])c1ccc(Cl)c(S(=O)(=O)Nc2ccc(-c3ccc(N4CCCC4)nn3)cc2)c1 | inactive: 26.8% | – |
| CN(C)c1cccc2c1c(NC(=O)Nc1ccc(Cl)cc1Cl)nn2C | inactive: 9.53% | – |
| Clc1ccc2c(c1)C1=C(C(c3ccncc3)O2)C(c2ccc(Br)cc2)n2ncnc2N1 (configuration not stated) | – | inconclusive: 23.1 µM [inhibitor, partial curve] |
| O=C(Nc1ccc(Br)cc1)c1cccc(N2C(=O)C3CCCCC3C2=O)c1 (configuration not stated) | – | inconclusive: 18.3 µM [inhibitor, partial curve, poor fit] |
| Cc1c(C(=O)N(C)CCCCN2CCOCC2)oc2c(F)cccc12 | – | inconclusive: 35.5 µM [activator, single point] |

Reference: PubChem BioAssay AID504467 (National Center for Advancing Translational Sciences (NCATS), 2011)
